Experimental findings from PMC10774338 are described below.

Amino acid sequences for entries named in this document (tags omitted).
UniProt P62491: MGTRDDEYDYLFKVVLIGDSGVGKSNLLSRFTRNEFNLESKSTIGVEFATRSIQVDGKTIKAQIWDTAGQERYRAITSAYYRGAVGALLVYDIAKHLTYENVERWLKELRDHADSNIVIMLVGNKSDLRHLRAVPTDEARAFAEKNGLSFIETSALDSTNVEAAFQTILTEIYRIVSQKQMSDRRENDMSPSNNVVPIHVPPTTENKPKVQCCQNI

Assay [1] has as its target T1, Myc-tagged WDR44 D648G (human) (UniProt Q5JSH3).
T1 sequence: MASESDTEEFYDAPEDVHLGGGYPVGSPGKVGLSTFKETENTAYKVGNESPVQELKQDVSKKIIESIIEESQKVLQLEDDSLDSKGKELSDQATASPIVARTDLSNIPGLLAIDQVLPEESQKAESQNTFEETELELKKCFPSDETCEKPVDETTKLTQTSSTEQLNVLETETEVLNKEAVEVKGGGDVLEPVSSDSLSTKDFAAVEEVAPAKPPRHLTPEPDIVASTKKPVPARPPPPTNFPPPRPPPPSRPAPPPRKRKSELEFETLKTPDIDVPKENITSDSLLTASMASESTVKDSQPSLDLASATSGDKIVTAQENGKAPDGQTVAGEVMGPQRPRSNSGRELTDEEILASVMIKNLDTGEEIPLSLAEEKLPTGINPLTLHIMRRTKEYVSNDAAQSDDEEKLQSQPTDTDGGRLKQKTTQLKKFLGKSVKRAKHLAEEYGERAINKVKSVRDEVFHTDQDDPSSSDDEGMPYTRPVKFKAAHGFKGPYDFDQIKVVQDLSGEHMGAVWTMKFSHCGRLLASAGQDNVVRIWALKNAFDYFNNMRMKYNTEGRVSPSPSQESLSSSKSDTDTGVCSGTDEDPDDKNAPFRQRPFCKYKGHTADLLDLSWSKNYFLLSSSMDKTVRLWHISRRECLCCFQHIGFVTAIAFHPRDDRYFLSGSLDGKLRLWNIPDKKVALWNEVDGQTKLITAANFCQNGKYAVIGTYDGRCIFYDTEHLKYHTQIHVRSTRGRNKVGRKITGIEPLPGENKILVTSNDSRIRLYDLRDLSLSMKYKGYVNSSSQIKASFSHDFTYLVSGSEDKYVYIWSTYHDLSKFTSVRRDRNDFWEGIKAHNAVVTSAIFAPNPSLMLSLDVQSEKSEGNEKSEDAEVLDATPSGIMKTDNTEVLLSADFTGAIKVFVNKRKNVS
The experiment in a line: co-IP; GFP-RAB11A and Myc-WDR44 wild-type or variant coexpressed in 293T for 48 h; Myc-tagged proteins immunoprecipitated from lysate (150 mM NaCl, 20 mM Tris HCl pH 8.0, 10% glycerol, 1% Triton X-100; Protein G Sepharose), blots probed for GFP and Myc; also done after 3 h and 24 h serum starvation (wild-type, G782C, S764F).

Assay [2] has as its target T2, Myc-tagged WDR44 wild-type (human) (UniProt Q5JSH3).
T2 sequence: T1 sequence with G648D
The description is as above.

Where a chain is given by its changes, count along the chain named. Results are given in words; binding and its absence hold for the method and conditions named. Binding seen in cells or lysates may run through a third protein. Some results given as binding are weak or reduced against the parent protein; the word gives no strength. Where a sequence is shown, tags or fusion partners need not be part of it.

With “GFP-tagged RAB11A (from UniProt P62491 1-216)”, the binding result in assay [1] and in assay [2] was “binds” each time.
